Test results as given in PMC7353009, “Identification of Substrates of Cytoplasmic Peptidyl-Prolyl Cis/Trans Isomerases and Their Collective Essentiality in Escherichia Coli” (International Journal of Molecular Sciences, 2020).
Where two headings read alike, the source gives them in different places. No constants are given. Whether binding was seen depends on the method and setting. In cells and extracts the contact can be indirect. Here binding means that the protein was enriched with, or labelled near, the bait; the list need not be complete. Tags and fused reporters may be left off the sequences shown.

Protein sequences, listed by entry. Tags and fused reporters are not part of them.
UniProt P0ADG4: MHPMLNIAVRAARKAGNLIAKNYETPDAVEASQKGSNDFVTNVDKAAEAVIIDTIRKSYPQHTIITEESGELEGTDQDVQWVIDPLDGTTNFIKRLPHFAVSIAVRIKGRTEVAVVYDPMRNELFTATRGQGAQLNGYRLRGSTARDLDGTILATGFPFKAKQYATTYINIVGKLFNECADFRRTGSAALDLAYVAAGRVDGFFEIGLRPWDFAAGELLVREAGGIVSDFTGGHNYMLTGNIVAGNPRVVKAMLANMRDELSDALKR
UniProt P42641: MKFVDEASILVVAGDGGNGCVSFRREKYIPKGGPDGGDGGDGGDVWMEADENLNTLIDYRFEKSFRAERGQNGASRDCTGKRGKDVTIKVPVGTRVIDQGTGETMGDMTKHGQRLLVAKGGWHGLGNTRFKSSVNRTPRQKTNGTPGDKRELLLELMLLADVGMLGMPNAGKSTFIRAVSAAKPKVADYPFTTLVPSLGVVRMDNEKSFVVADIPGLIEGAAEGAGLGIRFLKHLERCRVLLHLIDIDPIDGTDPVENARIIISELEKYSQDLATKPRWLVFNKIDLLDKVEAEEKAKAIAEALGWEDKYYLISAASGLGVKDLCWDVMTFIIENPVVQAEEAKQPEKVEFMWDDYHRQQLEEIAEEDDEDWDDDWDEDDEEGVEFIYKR
UniProt P0A9B2: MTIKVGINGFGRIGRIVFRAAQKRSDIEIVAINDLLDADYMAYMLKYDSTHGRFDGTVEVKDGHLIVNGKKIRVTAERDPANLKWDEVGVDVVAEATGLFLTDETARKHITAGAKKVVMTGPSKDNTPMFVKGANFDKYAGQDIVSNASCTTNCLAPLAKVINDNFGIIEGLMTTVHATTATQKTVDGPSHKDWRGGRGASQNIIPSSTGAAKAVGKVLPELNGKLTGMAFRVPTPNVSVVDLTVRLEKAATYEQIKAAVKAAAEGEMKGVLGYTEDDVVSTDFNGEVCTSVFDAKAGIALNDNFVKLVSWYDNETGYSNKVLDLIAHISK
UniProt P0AFG0: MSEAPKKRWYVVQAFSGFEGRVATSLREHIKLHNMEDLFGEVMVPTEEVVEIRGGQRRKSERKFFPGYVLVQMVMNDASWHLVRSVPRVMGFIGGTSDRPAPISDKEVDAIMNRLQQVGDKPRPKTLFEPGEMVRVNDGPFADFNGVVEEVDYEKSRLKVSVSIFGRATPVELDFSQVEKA
UniProt P0AE08: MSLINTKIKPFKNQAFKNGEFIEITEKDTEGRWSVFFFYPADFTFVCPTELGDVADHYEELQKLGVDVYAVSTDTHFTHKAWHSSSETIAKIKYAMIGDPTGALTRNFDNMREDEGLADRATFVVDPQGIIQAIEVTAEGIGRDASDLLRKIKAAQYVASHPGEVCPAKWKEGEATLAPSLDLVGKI
UniProt P0ACI0: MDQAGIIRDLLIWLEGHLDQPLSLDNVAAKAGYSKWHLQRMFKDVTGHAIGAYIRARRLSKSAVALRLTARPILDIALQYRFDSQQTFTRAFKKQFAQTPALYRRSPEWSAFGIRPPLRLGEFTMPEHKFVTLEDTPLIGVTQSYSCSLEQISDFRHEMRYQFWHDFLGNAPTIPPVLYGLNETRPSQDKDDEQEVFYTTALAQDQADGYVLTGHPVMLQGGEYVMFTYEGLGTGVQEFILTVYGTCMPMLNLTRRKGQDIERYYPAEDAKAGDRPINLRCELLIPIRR
UniProt P0A9X4: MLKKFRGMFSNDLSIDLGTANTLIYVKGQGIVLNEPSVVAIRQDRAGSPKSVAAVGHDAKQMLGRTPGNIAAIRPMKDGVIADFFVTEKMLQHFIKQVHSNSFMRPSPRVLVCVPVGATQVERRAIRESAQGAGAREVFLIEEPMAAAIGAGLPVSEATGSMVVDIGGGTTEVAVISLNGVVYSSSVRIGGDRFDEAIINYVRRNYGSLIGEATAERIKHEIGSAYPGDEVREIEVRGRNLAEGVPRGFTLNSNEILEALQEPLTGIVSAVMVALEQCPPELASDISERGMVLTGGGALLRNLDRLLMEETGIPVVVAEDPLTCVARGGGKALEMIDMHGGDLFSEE
UniProt P0AG30: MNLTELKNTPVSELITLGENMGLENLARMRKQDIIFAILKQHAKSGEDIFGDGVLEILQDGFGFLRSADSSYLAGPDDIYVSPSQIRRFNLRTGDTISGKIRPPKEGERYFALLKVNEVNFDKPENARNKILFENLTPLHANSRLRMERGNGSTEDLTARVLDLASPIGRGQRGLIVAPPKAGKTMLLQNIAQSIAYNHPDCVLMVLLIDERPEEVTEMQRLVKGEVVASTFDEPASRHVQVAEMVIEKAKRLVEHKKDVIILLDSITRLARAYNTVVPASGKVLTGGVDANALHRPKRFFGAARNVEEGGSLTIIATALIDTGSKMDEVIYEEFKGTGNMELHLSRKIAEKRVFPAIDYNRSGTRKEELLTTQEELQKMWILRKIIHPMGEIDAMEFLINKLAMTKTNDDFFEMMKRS
UniProt P0AAI5: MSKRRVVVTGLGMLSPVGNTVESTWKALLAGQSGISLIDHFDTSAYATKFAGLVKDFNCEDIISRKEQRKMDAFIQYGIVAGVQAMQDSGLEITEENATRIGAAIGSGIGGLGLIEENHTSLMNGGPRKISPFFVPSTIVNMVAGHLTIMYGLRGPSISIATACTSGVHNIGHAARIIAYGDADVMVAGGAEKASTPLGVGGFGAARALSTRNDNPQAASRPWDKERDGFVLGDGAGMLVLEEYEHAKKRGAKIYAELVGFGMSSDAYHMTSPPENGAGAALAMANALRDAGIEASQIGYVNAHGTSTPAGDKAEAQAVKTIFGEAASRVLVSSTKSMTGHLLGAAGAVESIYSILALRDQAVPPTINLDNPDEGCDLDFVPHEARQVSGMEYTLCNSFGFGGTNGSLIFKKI
UniProt P0A7Z4: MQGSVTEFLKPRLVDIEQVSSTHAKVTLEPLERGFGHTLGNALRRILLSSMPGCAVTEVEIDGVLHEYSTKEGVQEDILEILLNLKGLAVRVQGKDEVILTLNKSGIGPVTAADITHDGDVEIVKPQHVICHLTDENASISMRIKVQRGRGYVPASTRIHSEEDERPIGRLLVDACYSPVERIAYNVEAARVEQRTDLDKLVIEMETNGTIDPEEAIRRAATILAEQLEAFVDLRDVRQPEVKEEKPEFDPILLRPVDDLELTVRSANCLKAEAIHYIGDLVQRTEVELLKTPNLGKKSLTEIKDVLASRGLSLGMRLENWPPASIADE

T1: Hexa-His-tagged PpiC (wild type) (E. coli, UniProt P0A9L5 1-93)
T1 construct: PpiC, parvulin peptidyl-prolyl cis/trans isomerase, E. coli; coding region of the ppiC gene in pET24b; The tag is called cleavable; also called wt PpiC; wild-type PpiC; source: E. coli T7 express derivative lacking all six PPIs (SR21984), IPTG-induced; in lysate on Ni-NTA for co-elution; purified (Ni-NTA) for ITC; not shown: His6, C-terminal, kept
T1 sequence (looked up): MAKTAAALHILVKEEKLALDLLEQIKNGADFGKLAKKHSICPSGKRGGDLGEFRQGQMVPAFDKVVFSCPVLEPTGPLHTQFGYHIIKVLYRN

T2: Hexa-His-tagged FklB (wild type) (E. coli) (UniProt P0A9L3)
T2 sequence: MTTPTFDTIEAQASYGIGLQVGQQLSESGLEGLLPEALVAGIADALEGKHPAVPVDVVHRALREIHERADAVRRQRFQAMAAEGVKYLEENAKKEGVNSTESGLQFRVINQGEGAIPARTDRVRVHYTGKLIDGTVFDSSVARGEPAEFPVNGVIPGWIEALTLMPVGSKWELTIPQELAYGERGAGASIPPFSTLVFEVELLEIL

T3: Hexa-His-tagged FkpB (wild type) (E. coli) (UniProt P0AEM0)
T3 sequence: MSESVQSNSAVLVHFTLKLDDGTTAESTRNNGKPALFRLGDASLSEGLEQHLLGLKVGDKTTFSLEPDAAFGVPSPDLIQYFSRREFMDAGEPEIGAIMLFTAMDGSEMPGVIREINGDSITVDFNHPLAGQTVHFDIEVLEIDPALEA

T4: Hexa-His-tagged FkpB E86A (E. coli) (UniProt P0AEM0)
T4 sequence: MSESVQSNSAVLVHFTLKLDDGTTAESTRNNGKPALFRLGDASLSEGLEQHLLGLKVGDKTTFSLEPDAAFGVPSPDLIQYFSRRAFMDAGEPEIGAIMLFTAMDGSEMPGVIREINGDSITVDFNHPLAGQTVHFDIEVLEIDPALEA

T5: His6-tagged PpiB (wild type) (E. coli) (UniProt P23869)
T5 sequence: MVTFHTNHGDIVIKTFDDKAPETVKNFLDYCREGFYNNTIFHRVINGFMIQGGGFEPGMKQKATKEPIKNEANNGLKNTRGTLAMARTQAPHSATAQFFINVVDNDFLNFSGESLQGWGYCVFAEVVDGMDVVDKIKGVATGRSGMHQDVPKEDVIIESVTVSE


How the values were obtained:
Assay in all cases: affinity purification with mass spectrometry; His6-tagged PPI induced with 0.1 mM IPTG in an E. coli T7 express derivative lacking all six PPIs (SR21984); soluble lysate on Ni-NTA beads, 50 mM NaH2PO4, 300 mM NaCl, eluted with a linear imidazole gradient (50-500 mM); co-eluting proteins resolved by SDS-PAGE (for FkpB also 2D gels) and identified by MALDI-TOF
[1] = biological target: T1, Hexa-His-tagged PpiC (wild type)
[2] = biological target: T2, Hexa-His-tagged FklB (wild type) (E. coli)
[3] = biological target: T3, Hexa-His-tagged FkpB (wild type) (E. coli)
[4] = biological target: T4, Hexa-His-tagged FkpB E86A (E. coli)
[5] = biological target: T5, His6-tagged PpiB (wild type) (E. coli)
[6] = biological target: T3, Hexa-His-tagged FkpB (wild type) (E. coli); remark: listed apart in the source
[7] = biological target: T4, Hexa-His-tagged FkpB E86A (E. coli); remark: listed apart in the source
[8] = biological target: T1, Hexa-His-tagged PpiC (wild type); remark: listed apart in the source
[9] = biological target: T2, Hexa-His-tagged FklB (wild type) (E. coli); remark: listed apart in the source

binding [1] | binding [2] | binding [3] | binding [4] | Molecule | further results
binds | – | – | – | SuhB (from UniProt P0ADG4 1-267) | –
– | binds | – | – | ribosome assembly-related GTP-binding protein ObgE (from UniProt P42641 1-390) | –
– | – | binds | binds | GapA protein (from UniProt P0A9B2 1-331) | –
binds | binds | – | – | NusG (from UniProt P0AFG0 1-181) | –
binds | binds | binds | binds | alkyl hydroperoxide reductase subunit C (AhpC) (from UniProt P0AE08 1-187) | –
– | binds | – | – | transcriptional regulator Rob (from UniProt P0ACI0 1-289) | –
– | – | binds | binds | cell shape determining protein MreB (from UniProt P0A9X4 1-347) | binding [5]: binds
binds | binds | binds | binds | Rho transcriptional terminator factor (from UniProt P0AG30 1-419) | binding [5]: binds
– | – | binds | binds | FabF (from UniProt P0AAI5 1-413) | –
binds | binds | – | – | RpoA (from UniProt P0A7Z4 1-329) | –
– | – | – | – | putative methyl transferase YfiF (protein, UniProt P0AGJ5 1-345) MNDEMKGKSGKVKVMYVRSDDDSDKRTHNPRTGKGGGRPGKSRADGGRRPARDDKQSQPRDRKWEDSPWRTVSRAPGDETPEKADHGGISGKSFIDPEVLRRQRAEETRVYGENACQALFQSRPEAIVRAWFIQSVTPRFKEALRWMAANRKAYHVVDEAELTKASGTEHHGGVCFLIKKRNGTTVQQWVSQAGAQDCVLALENESNPHNLGGMMRSCAHFGVKGVVVQDAALLESGAAIRTAEGGAEHVQPITGDNIVNVLDDFRQAGYTVVTTSSEQGKPLFKTSLPAKMVLVLGQEYEGLPDAARDPNDLRVKIDGTGNVAGLNISVATGVLLGEWWRQNKA | binding [6]: binds; binding [7]: binds
– | – | – | – | OxyR (protein, UniProt P0ACQ4 1-305) MNIRDLEYLVALAEHRHFRRAADSCHVSQPTLSGQIRKLEDELGVMLLERTSRKVLFTQAGMLLVDQARTVLREVKVLKEMASQQGETMSGPLHIGLIPTVGPYLLPHIIPMLHQTFPKLEMYLHEAQTHQLLAQLDSGKLDCVILALVKESEAFIEVPLFDEPMLLAIYEDHPWANRECVPMADLAGEKLLMLEDGHCLRDQAMGFCFEAGADEDTHFRATSLETLRNMVAAGSGITLLPALAVPPERKRDGVVYLPCIKPEPRRTIGLVYRPGSPLRSRYEQLAEAIRARMDGHFDKVLKQAV | binding [8]: binds; binding [9]: binds
– | – | – | – | EttA protein (Energy-dependent Translational Throttle A) (protein, UniProt P0A9W3 1-555) MAQFVYTMHRVGKVVPPKRHILKNISLSFFPGAKIGVLGLNGAGKSTLLRIMAGIDKDIEGEARPQPDIKIGYLPQEPQLNPEHTVRESIEEAVSEVVNALKRLDEVYALYADPDADFDKLAAEQGRLEEIIQAHDGHNLNVQLERAADALRLPDWDAKIANLSGGERRRVALCRLLLEKPDMLLLDEPTNHLDAESVAWLERFLHDFEGTVVAITHDRYFLDNVAGWILELDRGEGIPWEGNYSSWLEQKDQRLAQEASQEAARRKSIEKELEWVRQGTKGRQSKGKARLARFEELNSTEYQKRNETNELFIPPGPRLGDKVLEVSNLRKSYGDRLLIDDLSFSIPKGAIVGIIGPNGAGKSTLFRMISGQEQPDSGTITLGETVKLASVDQFRDSMDNSKTVWEEVSGGLDIMKIGNTEMPSRAYVGRFNFKGVDQGKRVGELSGGERGRLHLAKLLQVGGNMLLLDEPTNDLDIETLRALENALLEFPGCAMVISHDRWFLDRIATHILDYQDEGKVEFFEGNFTEYEEYKKRTLGADALEPKRIKYKRIAK | binding [8]: binds; binding [9]: binds
– | – | – | – | RlmJ (protein, UniProt P37634 1-280) MLSYRHSFHAGNHADVLKHTVQSLIIESLKEKDKPFLYLDTHAGAGRYQLGSEHAERTGEYLEGIARIWQQDDLPAELEAYINVVKHFNRSGQLRYYPGSPLIARLLLREQDSLQLTELHPSDYPLLRSEFQKDSRARVEKADGFQQLKAKLPPVSRRGLILIDPPYEMKTDYQAVVSGIAEGYKRFATGIYALWYPVVLRQQIKRMIHDLEATGIRKILQIELAVLPDSDRRGMTASGMIVINPPWKLEQQMNNVLPWLHSKLVPAGTGHATVSWIVPE | binding [9]: binds
– | – | – | – | TreC (protein, UniProt P28904 1-551) MTHLPHWWQNGVIYQIYPKSFQDTTGSGTGDLRGVIQHLDYLHKLGVDAIWLTPFYVSPQVDNGYDVANYTAIDPTYGTLDDFDELVTQAKSRGIRIILDMVFNHTSTQHAWFREALNKESPYRQFYIWRDGEPETPPNNWRSKFGGSAWRWHAESEQYYLHLFAPEQADLNWENPAVRAELKKVCEFWADRGVDGLRLDVVNLISKDPRFPEDLDGDGRRFYTDGPRAHEFLHEMNRDVFTPRGLMTVGEMSSTSLEHCQRYAALTGSELSMTFNFHHLKVDYPGGEKWTLAKPDFVALKTLFRHWQQGMHNVAWNALFWCNHDQPRIVSRFGDEGEYRVPAAKMLAMVLHGMQGTPYIYQGEEIGMTNPHFTRITDYRDVESLNMFAELRNDGRDADELLAILASKSRDNSRTPMQWSNGDNAGFTAGEPWIGLGDNYQQINVEAALADDSSVFYTYQKLIALRKQEAILTWGNYQDLLPNSPVLWCYRREWKGQTLLVIANLSREIQPWQAGQMRGNWQLVMHNYEEASPQPCAMNLRPFEAVWWLQK | binding [9]: binds
